# Values quoted from earlier work as cited in patent publication US4603132A, “Phenothiazine compounds with anti-bronchospastic activity and pharmaceutical compositions containing them” (priority 1984, dated 1986).
# Test system: bronchial asthma
# Settings: literature, in words; cited from earlier work
smiles,measurement,value
CN1CCC[C@@H]1CCO[C@](C)(c1ccccc1)c1ccc(Cl)cc1 [clemastine],effect in bronchial asthma / bronchial hyperreactivity,singularly inefficacious in the bronchial asthma
